# Measured values published in PubChem BioAssay AID588519 (ICCB-Longwood Screening Facility, Harvard Medical School, 2011).
# The list shows a part of the results.
# Biological target: Genome polyprotein (Poliovirus type 1 (strain Mahoney)) (UniProt P03300)
# Assay: inhibitors of poliovirus polymerase RNA elongation – biochemical, fluorescence polarization, total intensity, primary screen (AID 588519); note: compound at 16.7 µg/mL
# Conditions: measured here: FP z-score, stronger effect = lower value
row,Structure (SMILES),z-score
1,CN(CCCl)CCCl,0.6
